Earlier results in patent publication US11000530B2, “Methods and compositions for the treatment of ophthalmic conditions” (Murray & Poole Enterprises, Limited, priority 2017, dated 2021).
At least one structure is not confirmed: it was looked up by name or label, or the drawing left a doubt.

Conditions: exposure to oxygen: oxygenation of diclofenac, degradation of ofloxacin into ofloxacin-N-oxide; cited from earlier work

CC1COc2c(N3CCN(C)CC3)c(F)cc3c(=O)c(C(=O)O)cn1c23 (stereo not shown) [ofloxacin]
compatibility of diclofenac and ofloxacin: generally incompatible
